Assay: general procedure: peptide synthesis; Amide Resin, substitution degree 1.4
Settings: whole synthesis, HPLC, detection wavelength 215 nm, scale of the general procedure 20 g resin

Substance	final purity (method not given) [%]
CA-Gly-Pro-Gln-Gly-Pro-Gln-NH2	99.12
GA-Gly-Pro-Gln-Gly-Pro-Gln-NH2	98.69
